{"source": "PubChem BioAssay AID686938 – Drosophila RNAi Screening Center – 2013", "screen": "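Knock-downs reducing store-operated calcium influx in Drosophila cells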 (primary screen)", "cells": "Drosophila S2R+ cells", "reagent": "long dsRNA against Drosophila genes, about 0.25 µg dsRNA per well, roughly 10,000 cells", "timing": "5 days of knock-down before the calcium assay", "conditions": "thapsigargin (SERCA pump blocker) to empty calcium stores; entry signal taken 4 min after adding it", "detection": "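Duplicate raw fluo-4 intensities per well from a plate reader, at rest and four minutes after thapsigargin emptied calcium stores; entry-to-rest ratio filled for only some wells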", "scale": "calcium entry signal: higher = stronger calcium signal after store depletion; resting calcium signal: higher = higher resting calcium signal", "units": "calcium entry signal in fluorescence units; resting calcium signal in fluorescence units", "rule for the call": "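Hit if the duplicate-averaged plate z-score for entry over resting signal is under −3; wells with weak total dye signal (Fmax z < −2) or more than 5 off-targets removed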", "meaning of the calls": "active = strongly reduced calcium entry; inactive = no strong reduction", "note": "The deposit covers about 23,000 reagents; this is a random part of those with a known target gene and a result. Of all reagents, 75 (0.33%) were called active. 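Raw plate signals without normalisation; calls rest on plate z-scores that were not deposited; ratio present for only 364 wells.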 A plus sign joins genes that one reagent is predicted to hit. The record does not give: the dose of the treatment."}
{"gene": "CG11723", "DRSC id": "DRSC00324", "calcium entry signal, replicate 1": 3.95e7, "resting calcium signal, replicate 1": 1.68e7, "activity call": "inactive"}
{"gene": "indra", "DRSC id": "DRSC08558", "calcium entry signal, replicate 1": 3.27e7, "calcium entry signal, replicate 2": 2.62e7, "resting calcium signal, replicate 1": 1.39e7, "resting calcium signal, replicate 2": 1.34e7, "activity call": "inactive"}
{"gene": "Ir94h", "DRSC id": "DRSC15232", "calcium entry signal, replicate 1": 2.97e7, "calcium entry signal, replicate 2": 4.29e7, "resting calcium signal, replicate 1": 1.53e7, "resting calcium signal, replicate 2": 1.89e7, "activity call": "inactive"}
{"gene": "Atx-1", "DRSC id": "DRSC18365", "calcium entry signal, replicate 1": 2.84e7, "calcium entry signal, replicate 2": 4.04e7, "resting calcium signal, replicate 1": 1.52e7, "resting calcium signal, replicate 2": 1.78e7, "activity call": "inactive"}
{"gene": "CG17267", "DRSC id": "DRSC15207", "calcium entry signal, replicate 1": 4.20e7, "calcium entry signal, replicate 2": 4.96e7, "resting calcium signal, replicate 1": 6.77e7, "resting calcium signal, replicate 2": 2.21e7, "activity call": "inactive"}
{"gene": "CG1840", "DRSC id": "DRSC19806", "calcium entry signal, replicate 1": 2.62e7, "calcium entry signal, replicate 2": 2.82e7, "resting calcium signal, replicate 1": 1.39e7, "resting calcium signal, replicate 2": 1.47e7, "activity call": "inactive"}
{"gene": "Ptp36E", "DRSC id": "DRSC03021", "calcium entry signal, replicate 1": 5.47e7, "calcium entry signal, replicate 2": 4.15e7, "resting calcium signal, replicate 1": 2.38e7, "resting calcium signal, replicate 2": 1.83e7, "activity call": "inactive"}
{"gene": "up", "DRSC id": "DRSC20382", "calcium entry signal, replicate 1": 3.80e7, "calcium entry signal, replicate 2": 3.80e7, "resting calcium signal, replicate 1": 1.81e7, "resting calcium signal, replicate 2": 1.82e7, "activity call": "inactive"}
{"gene": "Gr61a", "DRSC id": "DRSC08358", "calcium entry signal, replicate 1": 3.50e7, "calcium entry signal, replicate 2": 3.61e7, "resting calcium signal, replicate 1": 1.82e7, "resting calcium signal, replicate 2": 1.74e7, "activity call": "inactive"}
{"gene": "Lcp4", "DRSC id": "DRSC07458", "calcium entry signal, replicate 1": 4.53e7, "calcium entry signal, replicate 2": 4.09e7, "resting calcium signal, replicate 1": 2.11e7, "resting calcium signal, replicate 2": 1.82e7, "activity call": "inactive"}

Ordered by “calcium entry signal, replicate 2” (ascending): 2 of the entries above.
{"gene": "up", "DRSC id": "DRSC20382", "calcium entry signal, replicate 1": 3.80e7, "calcium entry signal, replicate 2": 3.80e7, "resting calcium signal, replicate 1": 1.81e7, "resting calcium signal, replicate 2": 1.82e7, "activity call": "inactive"}
{"gene": "Ptp36E", "DRSC id": "DRSC03021", "calcium entry signal, replicate 1": 5.47e7, "calcium entry signal, replicate 2": 4.15e7, "resting calcium signal, replicate 1": 2.38e7, "resting calcium signal, replicate 2": 1.83e7, "activity call": "inactive"}

Next records:
{"gene": "snRNA:U1:95Cc + CG43285 (retired record)", "DRSC id": "DRSC13640", "calcium entry signal, replicate 1": 2.63e7, "calcium entry signal, replicate 2": 3.57e7, "resting calcium signal, replicate 1": 1.48e7, "resting calcium signal, replicate 2": 1.91e7, "activity call": "inactive"}
{"gene": "CG15443", "DRSC id": "DRSC00455", "calcium entry signal, replicate 1": 2.21e7, "calcium entry signal, replicate 2": 2.03e7, "resting calcium signal, replicate 1": 1.10e7, "resting calcium signal, replicate 2": 9.49e6, "activity call": "inactive"}
{"gene": "Drep2", "DRSC id": "DRSC07528", "calcium entry signal, replicate 1": 3.54e7, "calcium entry signal, replicate 2": 2.89e7, "resting calcium signal, replicate 1": 1.43e7, "resting calcium signal, replicate 2": 1.33e7, "activity call": "inactive"}
{"gene": "ND-20", "DRSC id": "DRSC20164", "calcium entry signal, replicate 1": 4.60e7, "calcium entry signal, replicate 2": 4.50e7, "resting calcium signal, replicate 1": 2.14e7, "resting calcium signal, replicate 2": 2.13e7, "activity call": "inactive"}
{"gene": "CG34038", "DRSC id": "DRSC04039", "calcium entry signal, replicate 1": 2.86e7, "calcium entry signal, replicate 2": 4.82e7, "resting calcium signal, replicate 1": 1.49e7, "resting calcium signal, replicate 2": 2.02e7, "activity call": "inactive"}
{"gene": "KP78a + KP78b", "DRSC id": "DRSC16721", "calcium entry signal, replicate 1": 3.14e7, "calcium entry signal, replicate 2": 2.98e7, "resting calcium signal, replicate 1": 1.59e7, "resting calcium signal, replicate 2": 1.57e7, "activity call": "inactive"}
{"gene": "KP78a + KP78b", "DRSC id": "DRSC16722", "calcium entry signal, replicate 1": 3.51e7, "calcium entry signal, replicate 2": 3.05e7, "resting calcium signal, replicate 1": 1.77e7, "resting calcium signal, replicate 2": 1.60e7, "activity call": "inactive"}
{"gene": "KP78b + KP78a", "DRSC id": "DRSC23338", "calcium entry signal, replicate 1": 4.68e7, "calcium entry signal, replicate 2": 2.60e7, "resting calcium signal, replicate 1": 2.68e7, "resting calcium signal, replicate 2": 1.25e7, "activity call": "inactive"}
{"gene": "KP78b + KP78a", "DRSC id": "DRSC23341", "calcium entry signal, replicate 1": 3.18e7, "calcium entry signal, replicate 2": 3.20e7, "resting calcium signal, replicate 1": 1.90e7, "resting calcium signal, replicate 2": 1.55e7, "activity call": "inactive"}
{"gene": "CG10970", "DRSC id": "DRSC17772", "calcium entry signal, replicate 1": 2.95e7, "calcium entry signal, replicate 2": 3.15e7, "resting calcium signal, replicate 1": 1.51e7, "resting calcium signal, replicate 2": 1.41e7, "activity call": "inactive"}
{"gene": "CG32726", "DRSC id": "DRSC17521", "calcium entry signal, replicate 1": 2.78e7, "calcium entry signal, replicate 2": 4.00e7, "resting calcium signal, replicate 1": 1.35e7, "resting calcium signal, replicate 2": 1.72e7, "activity call": "inactive"}
